The nature of this assay: qHTS Assay for Lipid Storage Modulators in Drosophila S3 Cells.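 On cell number change: cells counted by Cell Tracker Red CMTPX staining in the red channel.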 The note with it: BODIPY lipid droplet fluorescence, 18-24 h; for cell number change: measured here: cell count max response, cells fed with added oleic acid. The procedure, abridged:
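Laser-scanning cytometry quantifies lipid droplet accumulation (500–530 nm total intensity; droplet/cell object ratio) in oleic acid-fed (400 uM added) Drosophila S3 cells treated with a concentration series. 20 uM Triacsin C defined 100% inhibition.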
A general note: Quantitative high-throughput screening tests each substance at several concentrations.

Where [1] appears, read: measured here: lipid fluorescence (Fed channel) AC50, cells fed with added oleic acid.
The mark [2] stands for this setting: measured here: cell number channel AC50, cells fed with added oleic acid.

This is one part of the list. These are further read-outs of the screen, such as a control signal, another cell line or another target. No call is given for them. The list favours compounds with an active or inconclusive main result. Words in brackets tell the shape of the fitted curve; partial curves, single points and poor fits give uncertain potencies.

The results in this text go back to PubChem BioAssay AID2685 (National Center for Advancing Translational Sciences (NCATS), 2010).

Usually AC50 stands for the midpoint of the concentration-response curve, whichever way the signal moves.

With `CC1CCN(C(=O)COC(=O)c2ccc(F)c(S(=O)(=O)N3CCOCC3)c2)CC1`, the cell number change came out at 18.9%. Same read-out and setting: next, `COCCN(C(=O)c1ccc(NC2CC2)c([N+](=O)[O-])c1)c1c(N)n(CC(C)C)c(=O)[nH]c1=O`: 12.1%. Regarding `COc1ccccc1NC(=S)N1CCC(NC(=O)c2ccco2)CC1`, the cell number change was -8.03%. Also, under setting [1], the half-maximal activity concentration (AC50) is 3.66 µM [falling, single point]. In the case of `Cc1[nH]c2ccccc2c1CCNS(=O)(=O)c1ccc(S(N)(=O)=O)cc1`, the cell number change is 16.7%. Still for that read-out and setting: next, `CCN1C(=O)c2cccc3c(S(=O)(=O)NC(Cc4ccccc4)C(=O)O)ccc1c23` (centres undefined): 2.52%. Turning to `O=C(Cc1ccccc1F)Nc1ccccc1-c1ccccc1`, the cell number change is -13.8%. Moreover, the AC50 under setting [2] is 0.13 µM [falling, full curve, poor fit]. As for `CCCC(=O)Nc1nc(-c2ccc(OC)cc2)cs1`, the cell number change is 48.1%. Also, the AC50 under setting [2] is 0.0731 µM [rising, full curve]. Under setting [1], the concentration at half-maximal activity (AC50) is 2.31 µM [rising, partial curve]. As for `O=C1/C(=C\c2ccco2)SC(=S)N1c1ccc(O)cc1`, the cell number change is -43.3%. Besides, under setting [2], the AC50 is 29.1 µM [falling, single point]. Further, under setting [1], the AC50 was 20.6 µM [falling, single point]. As for `COC(=O)c1ccc(C)c(NS(=O)(=O)c2ccc(OC)cc2)c1`, the cell number change turned out to be 46.6%. For the same compound, the AC50 under setting [2] was 16.4 µM [rising, partial curve]. As to `CCOC(=O)CCc1n[nH]c(=O)[nH]c1=O`, the cell number change turned out to be 5%. Further, the concentration at half-maximal activity (AC50) under setting [1] is 0.58 µM [falling, single point]. On to `O=C(NCc1ccccc1F)C(=O)NCC1CCCN1S(=O)(=O)c1cccs1` (centres undefined), for which the cell number change was determined as 47.8%. Moreover, the AC50 under setting [2] was 29.1 µM [rising, single point].

With `NS(=O)(=O)c1ccc(CNC(=O)c2ccc(NS(=O)(=O)c3ccc4[nH]c(=O)[nH]c4c3)cc2)cc1`, the cell number change was -0.468%. Moreover, the AC50 under setting [1] is 29.1 µM [falling, single point]. Turning to `Cc1ccc(S(=O)(=O)C(C#N)c2nc3ccccc3nc2N2CCCCC2)cc1` (centres undefined), the cell number change was determined as 11.3%. The AC50 under setting [1] is 0.00651 µM [falling, full curve, poor fit]. As for `O=C1C=C(c2ccc3ccccc3c2)C[C@@H](c2ccc(F)cc2)C1`, the cell number change amounted to 3.82%. In addition, the AC50 under setting [1] was 0.058 µM [falling, full curve]. With `CN(C)c1ccc(Nc2cc(Cl)ncn2)cc1`, the cell number change was -24.8%. In addition, the AC50 under setting [1] was 20.6 µM [falling, single point]. Turning to `Oc1cc(O)c2c(c1)O[C@H](c1ccc(O)c(O)c1)[C@@H](O)C2`, the cell number change is -16.7%. For the same compound, under setting [1], the half-maximal activity concentration (AC50) was 6.51 µM [falling, single point]. With `N#Cc1ccccc1NC(=O)COC(=O)CCc1ccccc1`, the cell number change amounted to 3.85%. For `O=C(CN1CCC(C(=O)c2ccc3c(c2)OCCO3)CC1)NCc1ccccc1`, the cell number change was 16.7%. In addition, the AC50 under setting [1] is 0.00517 µM [rising, full curve, poor fit]. Turning to `CCCOc1ccc(NC(=O)CCC(=O)NC(C)c2ccccc2)cc1` (centres undefined), the cell number change was -11%. On to `Cc1ccccc1OCC(O)Cn1c(SC(C)C)nc2c1c(=O)[nH]c(=O)n2C` (centres undefined), for which the cell number change was 3.99%. In addition, the AC50 under setting [2] is 2.59 µM [rising, partial curve].

Regarding `c1ccc(-c2nc3ccccn3c2NCc2ccc3c(c2)OCO3)cc1`, the cell number change came to 9.67%. The half-maximal activity concentration (AC50) under setting [1] was 0.13 µM [rising, full curve, poor fit].

As to `CCOc1ccccc1C1NC(=O)CCC1[N+](=O)[O-]` (centres undefined), the cell number change is -0.265%.

On to `CCCNC(=O)c1cccc(Cn2cc(Br)c([N+](=O)[O-])n2)c1`, for which the cell number change came to 10.1%. The AC50 under setting [2] was 5.17 µM [falling, single point]. Also, under setting [1], the AC50 is 10.3 µM [rising, partial curve]. For `Cc1c(C(=O)NCCc2ccc(S(N)(=O)=O)cc2)cccc1[N+](=O)[O-]`, the cell number change was 0.637%. With `C/C(N)=C(/C#N)C(=O)COC(=O)C(c1ccccc1)c1ccccc1`, the cell number change was -21.1%. In addition, the half-maximal activity concentration (AC50) under setting [1] is 32.6 µM [falling, single point]. As for `COc1ccccc1C(=O)Nc1cccc(SC)c1`, the cell number change was 11.9%. Further, the AC50 under setting [2] is 2.06 µM [rising, partial curve]. Further, under setting [1], the concentration at half-maximal activity (AC50) is 3.26 µM [rising, partial curve]. Consider `OCCC1CN(Cc2cc3c(cc2Cl)OCO3)CCN1C1CCCC1` (centres undefined), for which the cell number change was -6.21%. Further, the half-maximal activity concentration (AC50) under setting [1] is 0.164 µM [falling, full curve, poor fit]. For the compound `CC(=O)Nc1sc(C)c(C)c1C(=O)OCC(=O)N(C)c1c(N)n(Cc2ccccc2)c(=O)[nH]c1=O`, the cell number change was 14.2%. In addition, the concentration at half-maximal activity (AC50) under setting [1] was 18.4 µM [rising, single point]. Take `O=C(N1CCOCC1)N1CCC(c2nc(-c3ccc(S(=O)(=O)N4CCOCC4)cc3)no2)CC1`: the cell number change is -21.6%. For the same compound, the AC50 under setting [1] was 3.26 µM [falling, full curve]. `CC(C(=O)N1CCCCCC1)N(c1ccc(Cl)cc1)S(C)(=O)=O` (centres undefined): the cell number change is -1.72%. Regarding `CC1CCN(C(=O)C(=O)c2cn(CC(=O)N3CCCC3)c3ccccc23)CC1`, the cell number change was -5.78%. For the compound `COc1ccc(-n2cc(-c3ccccc3)c3c(NCCOCCO)ncnc32)cc1`, the cell number change was -86.6%. Moreover, the AC50 under setting [1] is 0.651 µM [falling, full curve, poor fit].

Consider `CCCCN1C(=O)/C(=C2\SC(N3CCOCC3)=NC2=O)c2ccccc21`, for which the AC50 under setting [1] was 20.6 µM [falling, single point].

Regarding `CCN(C(=O)COC(=O)c1cc(S(=O)(=O)N2CCOCC2)ccc1F)C1CCS(=O)(=O)C1` (centres undefined), the cell number change is 9.59%. Under setting [1], the concentration at half-maximal activity (AC50) was 16.4 µM [falling, single point].

Turning to `Cn1nc(-c2ccccc2)c(C(=O)NCC(=O)O)c1Cl`, the cell number change was -68.2%. The concentration at half-maximal activity (AC50) under setting [2] was 0.206 µM [falling, full curve]. Moreover, the AC50 under setting [1] is 0.231 µM [falling, full curve].

On to `COc1ccc(S(=O)(=O)NCCc2c[nH]c3ccccc23)cc1OC`, for which the cell number change is 12.5%.

`COCCNC(=O)C(c1ccc(O)cc1)N(Cc1cccs1)C(=O)CCC(=O)Nc1ccccn1` (centres undefined): the cell number change stood at 10.5%. Also, the AC50 under setting [1] was 29.1 µM [rising, single point]. Turning to `Cc1ccc2oc(-c3cccc(NC(=O)c4ccc(Br)o4)c3)nc2c1`, the cell number change was 14.4%.

Turning to `COc1cc2c(cc1OC)CN(CC(=O)NC(=O)NCc1ccccc1)CC2`, the cell number change was -22%.

With `CCOCc1nnc(NC(=O)C2CCN(C(=O)c3ccco3)CC2)s1`, the cell number change worked out at 22.3%. Moreover, under setting [2], the half-maximal activity concentration (AC50) was 0.00461 µM [rising, full curve, poor fit]. Besides, under setting [1], the half-maximal activity concentration (AC50) was 29.1 µM [falling, single point]. `O=P(CCCCCCCCCP(=O)(c1ccccc1)c1ccccc1)(c1ccccc1)c1ccccc1`: the cell number change is -77.2%. The AC50 under setting [2] was 23.1 µM [falling, single point]. Also, the AC50 under setting [1] was 29.1 µM [falling, single point]. For `CS(=O)(=O)N(Cc1ccccc1)c1ccc(C(=O)NN=C2CCCCCC2)cc1`, the cell number change came to 10.2%. Also, under setting [1], the concentration at half-maximal activity (AC50) was 0.461 µM [rising, full curve, poor fit]. Take `O=C(CSc1n[nH]c(-c2ccccc2F)n1)NCC(=O)Nc1ccc(F)c(F)c1F`: under setting [1], the half-maximal activity concentration (AC50) was 1.64 µM [rising, partial curve, poor fit]. The same measure, in the same setting: as for `COc1ccccc1CNS(=O)(=O)c1ccc(C)cc1`, the figure is 18.4 µM [rising, partial curve]. In the case of `COc1ccc(N2CCN(C(=O)COc3ccc4c(C)cc(=O)oc4c3C)CC2)cc1`, the cell number change worked out at 17.9%. In addition, under setting [1], the concentration at half-maximal activity (AC50) is 23.1 µM [rising, partial curve, poor fit]. As for `CCOC(=O)CSc1ccc(C(=O)N2CCN(C)CC2)cc1[N+](=O)[O-]`, the cell number change worked out at 21.4%. In addition, under setting [1], the concentration at half-maximal activity (AC50) was 4.11 µM [rising, single point]. Take `OCCNCCOc1ccccc1F`: the cell number change is -103%. Further, the AC50 under setting [2] was 18.4 µM [falling, partial curve]. In addition, under setting [1], the concentration at half-maximal activity (AC50) is 23.1 µM [falling, partial curve, poor fit].

As for `O=C(Nc1ccc(F)cc1)N(Cc1nnc2n1CCCCC2)c1ccccc1`, the cell number change is -0.949%.

Take `N/C(=N\OC(=O)CN1C(=O)c2ccccc2C1=O)c1ccc(Br)cc1`: the cell number change was 22.3%. Besides, under setting [1], the half-maximal activity concentration (AC50) is 6.51 µM [rising, single point]. For the compound `O=C(Nc1nc(-c2ccncc2)cs1)c1ccco1`, the cell number change was -9.95%. Further, under setting [1], the AC50 was 7.31 µM [rising, partial curve]. On to `CN(C)c1nc(NCc2ccccc2)nc(SCC(N)=O)n1`, for which the cell number change was -23.5%. Also, the AC50 under setting [1] is 0.517 µM [rising, single point]. `CCOC(=O)c1c(NC(=O)COC(=O)C2CCC2)sc(C(=O)N(C)C)c1C`: the AC50 under setting [1] is 0.164 µM [falling, full curve, poor fit]. Consider `N/C(=N\OS(=O)(=O)c1ccc(Cl)cc1)c1cccnc1`, for which the cell number change was determined as 34%. The concentration at half-maximal activity (AC50) under setting [2] is 29.1 µM [rising, single point]. For `N#Cc1ccc(C23CC4(C2)[C@H](CN(Cc2ccc(-c5ccccc5)cc2)[C@@H]4c2ccccc2)C3c2ccc(Cl)nc2)cc1` (some centres undefined), the cell number change is 12.4%. Besides, the AC50 under setting [1] is 6.51 µM [rising, partial curve]. With `CC(=O)Nc1cccc(NC(=O)c2cc(-c3ccccn3)nc3ccc(Cl)cc23)c1`, the cell number change was -10.8%. With `Cc1ccc(S(=O)(=O)N2CN(Cc3ccco3)c3nc4ccccc4nc32)cc1`, the cell number change is -31%. Besides, the AC50 under setting [2] was 5.8 µM [falling, partial curve, poor fit]. The AC50 under setting [1] is 23.1 µM [falling, partial curve, poor fit]. `CC(=O)Oc1ccccc1C(=O)Nc1ncc([N+](=O)[O-])s1`: the cell number change was -60.9%. Further, the AC50 under setting [1] is 16.4 µM [falling, single point]. Regarding `O=C(CN1CCCCCC1)Nc1ccc(Oc2ccccc2)cc1`, the cell number change is -34.1%. The AC50 under setting [2] is 29.1 µM [falling, single point]. In addition, the concentration at half-maximal activity (AC50) under setting [1] is 32.6 µM [falling, single point]. Consider `C=CCC(C(=O)c1ccccc1)[N+](C)(C)CC=C` (centres undefined), for which the cell number change is -19.6%. For the same compound, the AC50 under setting [1] was 0.116 µM [falling, full curve, poor fit]. `CCOc1ccccc1NC(=O)CN(c1ccc(C)cc1)S(=O)(=O)c1c(C)n[nH]c1C`: the cell number change is 32.2%. Under setting [2], the AC50 is 0.461 µM [rising, partial curve, poor fit]. In addition, the AC50 under setting [1] was 9.2 µM [rising, partial curve]. For `CN(C)CCCNC(=O)/C(=N\O)c1ccccc1`, the cell number change was -17.3%. Under setting [1], the AC50 is 0.00651 µM [falling, full curve, poor fit].
